# The list shows a part of the results.
# Columns and labels:
# Assay in all cases: log2 fold change, soluble protein after heating vs DMSO (PISA); higher = thermal stabilisation; K562 lysate, 10 uM; active = over 0.2 and 3.5 SD of the protein, either way, in both replicates (recomputed)
# vemurafenib = compound: CCCS(=O)(=O)Nc1ccc(F)c(C(=O)c2c[nH]c3ncc(-c4ccc(Cl)cc4)cc23)c1F [vemurafenib]
# Outline: (§1)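 To prepare the extract, K562 pellets were dounce-homogenised in PBS pH 7.4 with 1 mM MgCl2, giving crude material at 1 mg/mL protein. This was treated with 10 μM compound for 30 min, then heated in aliquots for 3 min over 48°C-58°C before pooling and addition of NP-40 to 0.5% at 4°C. Centrifugation at 21,000xg for 90 min left soluble protein in the supernatant, which TMTpro 16plex LC-MS/MS quantified with equalised channel sums. Results are log-two fold changes in thermal stability compared with solvent controls, from duplicates.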
# [1] = compound: CCCS(=O)(=O)Nc1ccc(F)c(C(=O)c2c[nH]c3ncc(Cl)cc23)c1F
# Outline: as §1
# barasertib = compound: CCN(CCCOc1ccc2c(Nc3cc(CC(=O)Nc4cccc(F)c4)[nH]n3)ncnc2c1)CCOP(=O)(O)O [barasertib]
# Outline: as §1
# [2] = compound: CC[C@@H]1C(=O)N(C)c2cnc(Nc3ccc(C(=O)NC4CCN(C)CC4)cc3OC)nc2N1C1CCCC1
# Outline: as §1
# volasertib = compound: CC[C@@H]1C(=O)N(C)c2cnc(Nc3ccc(C(=O)N[C@H]4CC[C@H](N5CCN(CC6CC6)CC5)CC4)cc3OC)nc2N1C(C)C [volasertib]
# Outline: as §1
# [3] = compound: CCn1c(C(=O)N(C2CC2)C2CC2)cc2c3c(ncn3C)c(Nc3cc(C)n(C)n3)nc21
# Outline: as §1
# [4] = compound: CCn1cc(-c2ccnc3[nH]c(-c4cccc(CN(C)C)c4)cc23)c(-c2ccc(NC(=O)N(C)C)cc2)n1
# Outline: as §1
# [5] = compound: CN1CCC(CNc2ccc3ncc(-c4cccc(OC(F)(F)F)c4)n3n2)CC1
# Outline: as §1
# saracatinib = compound: CN1CCN(CCOc2cc(OC3CCOCC3)c3c(Nc4c(Cl)ccc5c4OCO5)ncnc3c2)CC1 [saracatinib]
# Outline: as §1
# sotrastaurin = compound: CN1CCN(c2nc(C3=C(c4c[nH]c5ccccc45)C(=O)NC3=O)c3ccccc3n2)CC1 [sotrastaurin]
# Outline: as §1
Target,log2 fold change (vemurafenib),log2 fold change [1],log2 fold change (barasertib),log2 fold change [2],log2 fold change (volasertib),log2 fold change [3],log2 fold change [4],log2 fold change [5],log2 fold change (saracatinib),log2 fold change (sotrastaurin)
PRPF6 (UniProt O94906),inactive: -0.019,inactive: 0.004,inactive: 0.039,inactive: -0.057,inactive: -0.015,inactive: 0.019,inactive: 0.034,inactive: -0.049,inactive: 0.009,inactive: 0.025
PPP1R9B (UniProt Q96SB3),inactive: -0.001,inactive: 0.016,inactive: -0.025,inactive: 0.056,inactive: 0.024,inactive: 0.004,inactive: 0.196,inactive: -0.095,inactive: -0.018,inactive: -0.004
PRMT1 (UniProt Q99873),inactive: 0.041,inactive: -0.002,inactive: -0.02,inactive: -0.034,inactive: -0.003,inactive: -0.009,inactive: -0.154,inactive: 0.167,inactive: -0.005,inactive: 0.005
PRKACB isoform 2 (UniProt P22694),inactive: -0.077,inactive: -0.016,inactive: 0.013,inactive: -0.021,inactive: -0.01,inactive: -0.072,inactive: -0.021,inactive: 0.125,inactive: 0.012,inactive: 0.175
PPP4R4 (UniProt Q6NUP7),inactive: 0.207,inactive: 0.013,inactive: 0.138,inactive: 0.423,inactive: -0.048,inactive: -0.307,,,inactive: -0.003,inactive: -0.065
PPP3CB (UniProt P16298),inactive: 0.007,inactive: -0.005,inactive: -0.021,inactive: 0.021,inactive: 0.005,inactive: 0.052,inactive: -0.06,inactive: 0.079,inactive: 0.006,inactive: 0.013
PRDX1 (UniProt Q06830),inactive: 0.008,inactive: 0.005,inactive: 0.001,inactive: 0.052,inactive: 0.046,inactive: -0.044,inactive: -0.044,inactive: 0.147,inactive: -0.023,inactive: 0.019
PPP6R3 isoform 5 (UniProt Q5H9R7),inactive: -0.008,inactive: 0.006,inactive: -0.011,inactive: 0.012,inactive: 0.008,inactive: -0.015,inactive: 0.002,inactive: 0.02,inactive: 0.01,inactive: 0.018
PRKAG2 (UniProt Q9UGJ0),inactive: -0.209,inactive: 0.001,inactive: 0.02,inactive: -0.118,inactive: -0.026,inactive: 0.107,inactive: -0.106,inactive: 0.022,inactive: -0.032,inactive: 0.144
PRKCSH (UniProt P14314),inactive: 0.01,inactive: -0.009,inactive: -0.009,inactive: 0.007,inactive: 0.04,inactive: 0.025,inactive: 0.007,inactive: -0.003,inactive: 0.011,inactive: 0.018
PPP4R3B (UniProt Q5MIZ7),inactive: -0.054,inactive: 0.018,inactive: 0.029,inactive: -0.012,inactive: -0.019,inactive: -0.042,inactive: -0.006,inactive: 0.01,inactive: 0.024,inactive: -0.015
PPP2R5D (UniProt Q14738),inactive: -0.009,inactive: 0.004,inactive: 0.024,inactive: 0.007,inactive: -0.016,inactive: 0.015,inactive: 0.005,inactive: -0.031,inactive: 0,inactive: -0.001
PRDX3 (UniProt P30048),inactive: 0.021,inactive: -0.003,inactive: 0.015,inactive: 0.07,inactive: 0.054,inactive: -0.024,inactive: 0.046,inactive: -0.076,inactive: -0.048,inactive: 0.031
PPP4R3A (UniProt Q6IN85),inactive: -0.006,inactive: -0.007,inactive: -0.008,inactive: 0.035,inactive: 0.014,inactive: -0.011,inactive: -0.163,inactive: 0.068,inactive: -0.032,inactive: 0.039
PPP6R3 isoform 6 (UniProt Q5H9R7),,,,,,inactive: -0.038,inactive: -0.37,inactive: 0.224,,
PPME1 (UniProt Q9Y570),,inactive: -0.042,inactive: 0.026,inactive: 0.104,inactive: -0.012,,,,inactive: -0.043,
PRH1 (UniProt P02810),,,,,,,inactive: 0.273,inactive: -0.333,,
PRPF40A isoform 3 (UniProt O75400),,inactive: -0.008,,inactive: 0.044,inactive: 0.016,inactive: 0.043,,,,
PPP2CB (UniProt E5RHC1),,inactive: -0.098,inactive: 0.409,,inactive: -0.104,inactive: 0.073,inactive: 0.192,inactive: -0.135,inactive: -0.14,inactive: 0.063
PPP1R15B (UniProt Q5SWA1),,,,,,,inactive: 0.038,inactive: -0.077,,
PRADC1 (UniProt Q9BSG0),,inactive: 0.011,active: -0.509,,inactive: 0.074,inactive: -0.05,inactive: 0.057,inactive: 0.101,inactive: 0.054,inactive: -0.015
PPL (UniProt O60437),,,inactive: 0.459,inactive: -0.004,,,,,inactive: 0.122,inactive: 0.14
PPP1R3E (UniProt Q9H7J1),,,,,,,inactive: -0.089,inactive: 0.186,,
PPP6R3 isoform 2 (UniProt Q5H9R7),,,,,,inactive: -0.041,inactive: -0.18,inactive: -0.056,,

Target,log2 fold change (vemurafenib),log2 fold change [1],log2 fold change (barasertib),log2 fold change [2],log2 fold change (volasertib),log2 fold change [3],log2 fold change [4],log2 fold change [5],log2 fold change (saracatinib),log2 fold change (sotrastaurin)
PREP (UniProt H0Y5Y0),,inactive: 0.019,,,inactive: 0.079,,inactive: 0.678,inactive: -0.144,,
PRDM2 (UniProt Q13029),inactive: -0.002,inactive: 0.029,inactive: 0.013,,inactive: -0.078,inactive: 0.019,inactive: -0.016,inactive: 0.058,inactive: -0.03,
PPP2R5C isoform 2 (UniProt Q13362),inactive: 0.014,,inactive: -0.267,,,inactive: -0.081,inactive: -0.023,inactive: -0.033,inactive: 0.014,inactive: 0.134
PRICKLE3 (UniProt O43900),,,inactive: -0.079,,,inactive: -0.086,,,,
PPP2R2D (UniProt Q66LE6),inactive: -0.132,inactive: 0.022,inactive: 0.054,,inactive: 0.018,inactive: 0.019,inactive: -0.116,inactive: 0.104,inactive: -0.009,inactive: 0.047
PRG4 (UniProt Q92954),,inactive: -0.038,inactive: 0.332,,inactive: 0.054,inactive: -0.03,inactive: -0.179,inactive: 0.229,inactive: 0.009,inactive: -0.02
PPP1R3D (UniProt O95685),inactive: 0.036,inactive: -0.039,inactive: 0.012,,inactive: -0.024,inactive: -0.025,inactive: -0.07,inactive: 0.013,,inactive: 0.053
PPM1B isoform 2 (UniProt O75688),,inactive: 0.12,inactive: -0.073,inactive: -0.017,inactive: -0.019,inactive: 0.069,,,inactive: 0.021,
"PROSER3, A0A2R8Y8D9",,,,,,,,,inactive: -0.033,inactive: 0.085
PPP1R11 (UniProt O60927),,inactive: 0.069,inactive: -0.04,inactive: 0.153,inactive: 0.046,inactive: -0.101,inactive: 0.16,inactive: -0.067,inactive: -0.05,inactive: 0.001
PRELID1 (UniProt Q9Y255),inactive: -0.042,,inactive: 0.037,,,inactive: 0.119,,,,inactive: -0.022
PPP1R7 isoform 2 (UniProt Q15435),,inactive: -0.106,,,inactive: 0.044,inactive: 0.021,,,,
PPTC7 (UniProt Q8NI37),inactive: -0.09,,,,,inactive: 0.054,,,inactive: -0.037,
PPP1R7 (UniProt C9JD73),,inactive: -0.13,,,inactive: -0.026,,,,,
PRNP (UniProt P04156),,inactive: 0.003,inactive: -0.038,,inactive: 0.034,inactive: -0.126,inactive: -0.064,inactive: 0.106,inactive: -0.131,inactive: 0.055
PPM1J (UniProt Q5JR12),,inactive: 0.117,,,inactive: -0.078,,,,,
PROSER3 (UniProt Q2NL68),inactive: -0.057,,,,,,inactive: -0.012,inactive: 0.075,,inactive: 0.023
PPP1R12C isoform 3 (UniProt Q9BZL4),,,inactive: 0.136,,,inactive: 0.028,inactive: 0.013,inactive: 0.141,,inactive: -0.019
PPP2R3B (UniProt Q9Y5P8),,inactive: 0.007,inactive: 0.124,,inactive: -0.02,,inactive: 0.04,inactive: 0.065,,inactive: 0.005
PRIMPOL (UniProt Q96LW4),inactive: -0.02,,inactive: -0.083,inactive: -0.095,,inactive: 0.011,,,inactive: 0.014,inactive: 0.089
"PPP1R14A, A0A0B4J2A3",,inactive: -0.034,,,inactive: -0.146,,,,,
PRDM15 (UniProt P57071),,,,,,inactive: 0.227,,,inactive: -0.324,
PRG2 (UniProt P13727),,inactive: 0.006,,inactive: 0.052,inactive: -0.101,,,,inactive: 0.141,inactive: -0.049
PRPF40B (UniProt Q6NWY9),,,,,,,,,,inactive: 0.211

# Individual results from above.
# PRDM15 (UniProt P57071) | log2 fold change (saracatinib): inactive: -0.324
# PPP1R12C isoform 3 (UniProt Q9BZL4) | log2 fold change [5]: inactive: 0.141
